Data as given in PubChem BioAssay AID1259254 (NCATS, 2017).
Here is an unselected part of about 59,000 deposited reagents. Of all reagents, about 1,550 (2.6%) got an active call. 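G2 share is only a proxy for re-replication; each gene was hit by three separate siRNAs, and active genes were retested.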 Raw values vary from plate to plate and are shown uncorrected. Entries without a mark were called inactive. Reagent sequences are not shown. Not given: the amount of reagent.

Aim: 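Gene knock-downs that lead to re-replication, shown by excess G2 DNA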 (primary screen)
System: human HCT116 colorectal cancer cells
Reagent: single siRNA against human genes
Timing: 3 days
Measured: 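Nuclei stained with Hoechst and imaged; cell-cycle phase assigned by DNA content; G2 share scaled per plate, non-targeting siRNA 0%, GMNN siRNA 100%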
Scale: G2 robust z-score and G2 cells, % of GMNN control: higher = more G2 cells, more excess DNA replication; raw share of cells in G2: higher = larger share of cells with G2 DNA content
Hit rule: 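Active siRNAs have a G2 robust z of 5 or more median absolute deviations over the median, which in these data means about 38% or higher of GMNN control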

no.	gene	PubChem SID	G2 robust z-score	G2 cells, % of GMNN control	raw share of cells in G2 (%)
1	ETNK1	SID160743707	-0.332	0.635	5.79
2	ETNK1	SID160743708	-0.604	-1.29	4.72
3	ETNK1	SID160743709	0.82	8.74	6.48
4	C2	SID160729634	6.32 (active)	47.4	22.1
5	C2	SID160729645	-0.485	-0.446	4.75
6	C2	SID160729654	-0.281	0.99	4.28
7	CLLU1	SID160768354	-0.305	0.823	3.94
8	CLLU1	SID160768356	2.19	18.4	10.4
9	CLLU1	SID160768357	-0.629	-1.46	2.62
10	CFAP70	SID160755649	0.286	4.98	6.36
11	CFAP70	SID160755650	0.96	9.72	9.14
12	CFAP70	SID160755651	-0.205	1.53	6.38
13	ABCA15P	SID160733311	3.92	30.5	17.4
14	ABCA15P	SID160766972	1.93	16.5	9.83
15	ABCA15P	SID160766973	-0.566	-1.01	3.11
16	NEURL1	SID160721597	-0.465	-0.304	5.16
17	NEURL1	SID160721598	0.279	4.93	6.78
18	NEURL1	SID160721599	-1.04	-4.38	3.14
19	LFNG	SID160776577	-0.705	-1.99	4.68
20	LFNG	SID160776578	0.05	3.32	6.64
21	LFNG	SID160776579	-1.36	-6.6	1.02
22	ROCK1	SID160715977	-0.0865	2.36	6.39
23	ROCK1	SID160715978	-1.47	-7.37	1.43
24	ROCK1	SID160731670	-1.12	-4.88	3.76
25	FILIP1	SID160738452	1.79	15.6	9.79
26	FILIP1	SID160738453	-0.214	1.46	5.1
27	FILIP1	SID160738454	-0.859	-3.07	2.28
28	EDRF1	SID160737625	3.29	26.1	14.2
29	EDRF1	SID160737626	-0.947	-3.7	2.34
30	EDRF1	SID160737627	-0.0897	2.34	4.12
31	ATP7A	SID160722290	2.27	18.9	12.2
32	ATP7A	SID160722301	-1.42	-7.03	2.41
33	ATP7A	SID160722311	-1.01	-4.16	2.75
34	GOLGA4	SID160772536	-0.737	-2.22	4.26
35	GOLGA4	SID160772546	-0.219	1.43	4.61
36	GOLGA4	SID160772554	-0.359	0.442	3.7
37	AMER1	SID160757681	-0.652	-1.62	3.56
38	AMER1	SID160757682	-0.115	2.16	3.79
39	AMER1	SID160757683	0.664	7.64	5.35
40	ZNF99	SID160719130	-0.856	-3.06	2.51
41	ZNF99	SID160719131	-1.43	-7.08	2.83
42	ZNF99	SID160719132	0.173	4.18	5.09
43	RAB27B	SID160715558	-1.02	-4.2	2.75
44	RAB27B	SID160715559	1.16	11.1	8.81
45	RAB27B	SID160731636	-0.0461	2.64	5.69
46	OR2S2	SID160745108	1.68	14.8	10.2
47	OR2S2	SID160745109	-0.766	-2.42	3.3
48	OR2S2	SID160745110	-1.02	-4.2	1.7
49	LOC646179 (retired record)	SID160733975	2.28	19	9.08
50	LOC646179 (retired record)	SID160769805	0.108	3.73	5.18
51	LOC646179 (retired record)	SID160769806	-0.347	0.529	3.42
52	MORC3	SID160736440	-0.595	-1.22	3.45
53	MORC3	SID160736441	-0.274	1.04	6.79
54	MORC3	SID160736442	-0.194	1.6	4.69
55	SMPD3	SID160743743	0.272	4.88	6.37
56	SMPD3	SID160743744	0.6	7.19	9.58
57	SMPD3	SID160743745	-0.37	0.367	4.57
58	PPP4R2	SID160759177	-0.743	-2.26	3.75
59	PPP4R2	SID160759178	-1.54	-7.84	2.22
60	PPP4R2	SID160759179	1.85	16	10.5
61	ALG11	SID160731242	0.528	6.68	8.79
62	ALG11	SID160767716	6.14 (active)	46.2	23
63	ALG11	SID160767717	2.49	20.5	11.8
64	ADCY9	SID160714176	0.418	5.91	7.18
65	ADCY9	SID160714187	0.275	4.9	5.82
66	ADCY9	SID160714198	-0.171	1.77	5.32
67	SELENOP	SID160716572	-0.119	2.13	5.88
68	SELENOP	SID160716573	0.0271	3.16	5.47
69	SELENOP	SID160716576	-0.411	0.0755	3.38

Records above called active, once more:
gene	PubChem SID	G2 robust z-score	G2 cells, % of GMNN control	raw share of cells in G2 (%)
C2	SID160729634	6.32 (active)	47.4	22.1
ALG11	SID160767716	6.14 (active)	46.2	23
